Among the data in publication PMC5510181 are binding values, retold here.

No constants are given. Whether binding was seen depends on the method and setting. In cells and extracts the contact can be indirect. A result given as binding can be weak or reduced; the word gives no strength. Where a sequence is shown, tags or fusion partners need not be part of it.

The target in this assay is GST-GRB2 SH3-1 domain (N-terminal SH3). Kind of assay: pull-down; GST fusion proteins from E. coli incubated 3 h with detergent lysates of transfected 293T cells; SDS-PAGE and western blotting; only the target purified.

B1: Flag-tagged SKAP1 (protein, UniProt Q86WV1 1-359)
chain: MQAAALPEEIRWLLEDAEEFLAEGLRNENLSAVARDHRDHILRGFQQIKARYYWDFQPQGGDIGQDSSDDNHSGTLGLSLTSDAPFLSDYQDEGMEDIVKGAQELDNVIKQGYLEKKSKDHSFFGSEWQKRWCVVSRGLFYYYANEKSKQPKGTFLIKGYGVRMAPHLRRDSKKESCFELTSQDRRSYEFTATSPAEARDWVDQISFLLKDLSSLTIPYEEDEEEEEKEETYDDIDGFDSPSCGSQCRPTILPGSVGIKEPTEEKEEEDIYEVLPDEEHDLEEDESGTRRKGVDYASYYQGLWDCHGDQPDELSFQRGDLIRILSKEYNMYGWWVGELNSLVGIVPKEYLTTAFEVEER
Regarding B1, the binding result is “binds”.
